Assay results reported in the supplement of paper PMC11546906.
Structures can show the parent of a compound that is named as a salt. The list shows a part of the results. This data set is noisy: repeats of one test often differ as much as different tests do.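 Screen of FDA-approved drugs, each combined with colistin at one-eighth of its MIC, against a multidrug-resistant mcr-1-positive clinical E. coli isolate; growth read as OD600 after 24 h. Bacteria without drug were the growth control and plain broth the blank. A combination counted as active when OD600 fell below 0.2.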

Each molecule was assayed on Escherichia coli 42 (mcr-1-positive clinical isolate) (assay: OD600 after 24 h growth with compound plus colistin (absorbance units (OD600)); higher = more bacterial growth (less inhibition)). Details: first compound 25 µM; colistin concentration 0.5 ug/mL; incubation time 24 h; 37 °C.

| Structure (SMILES) | OD600 |
| --- | --- |
| O=C(c1ccccc1)c1ccc2n1CCC2C(=O)O (centres undefined) [Ketorolac tromethamine salt] + CCC(C)CCCC(=O)N[C@@H](CCN)C(=O)N[C@H](C(=O)N[C@@H](CCN)C(=O)N[C@H]1CCNC(=O)[C@H]([C@@H](C)O)NC(=O)[C@H](CCN)NC(=O)[C@H](CCN)NC(=O)[C@H](CC(C)C)NC(=O)[C@@H](CC(C)C)NC(=O)[C@H](CCN)NC1=O)[C@@H](C)O [colistin] | inactive: 0.952 |
| OC[C@@H](O)[C@@H](O[C@@H]1O[C@H](CO)[C@H](O)[C@H](O)[C@H]1O)[C@H](O)[C@@H](O)CO [Lactitol monohydrate] + CCC(C)CCCC(=O)N[C@@H](CCN)C(=O)N[C@H](C(=O)N[C@@H](CCN)C(=O)N[C@H]1CCNC(=O)[C@H]([C@@H](C)O)NC(=O)[C@H](CCN)NC(=O)[C@H](CCN)NC(=O)[C@H](CC(C)C)NC(=O)[C@@H](CC(C)C)NC(=O)[C@H](CCN)NC1=O)[C@@H](C)O [colistin] | inactive: 1.09 |
| CCN1CCN(Cc2ccc(Nc3ncc(F)c(-c4cc(F)c5nc(C)n(C(C)C)c5c4)n3)nc2)CC1 [Abemaciclib] + CCC(C)CCCC(=O)N[C@@H](CCN)C(=O)N[C@H](C(=O)N[C@@H](CCN)C(=O)N[C@H]1CCNC(=O)[C@H]([C@@H](C)O)NC(=O)[C@H](CCN)NC(=O)[C@H](CCN)NC(=O)[C@H](CC(C)C)NC(=O)[C@@H](CC(C)C)NC(=O)[C@H](CCN)NC1=O)[C@@H](C)O [colistin] | inactive: 1.07 |
| N[C@H]1CONC1=O [L-Cycloserine] + CCC(C)CCCC(=O)N[C@@H](CCN)C(=O)N[C@H](C(=O)N[C@@H](CCN)C(=O)N[C@H]1CCNC(=O)[C@H]([C@@H](C)O)NC(=O)[C@H](CCN)NC(=O)[C@H](CCN)NC(=O)[C@H](CC(C)C)NC(=O)[C@@H](CC(C)C)NC(=O)[C@H](CCN)NC1=O)[C@@H](C)O [colistin] | inactive: 1.11 |
| CCCc1nn(C)c2c(=O)[nH]c(-c3cc(S(=O)(=O)N4CCN(C)CC4)ccc3OCC)nc12 [Sildenafil citrate] + CCC(C)CCCC(=O)N[C@@H](CCN)C(=O)N[C@H](C(=O)N[C@@H](CCN)C(=O)N[C@H]1CCNC(=O)[C@H]([C@@H](C)O)NC(=O)[C@H](CCN)NC(=O)[C@H](CCN)NC(=O)[C@H](CC(C)C)NC(=O)[C@@H](CC(C)C)NC(=O)[C@H](CCN)NC1=O)[C@@H](C)O [colistin] | inactive: 0.896 |
| Cc1ccc(Sc2ccccc2N2CCNCC2)c(C)c1 [Vortioxetine] + CCC(C)CCCC(=O)N[C@@H](CCN)C(=O)N[C@H](C(=O)N[C@@H](CCN)C(=O)N[C@H]1CCNC(=O)[C@H]([C@@H](C)O)NC(=O)[C@H](CCN)NC(=O)[C@H](CCN)NC(=O)[C@H](CC(C)C)NC(=O)[C@@H](CC(C)C)NC(=O)[C@H](CCN)NC1=O)[C@@H](C)O [colistin] | inactive: 1.06 |
| CO[C@H]1O[C@@H]2O[C@@]3(C)CC[C@H]4[C@H](C)CC[C@@H]([C@H]1C)[C@@]24OO3 [Artemether] + CCC(C)CCCC(=O)N[C@@H](CCN)C(=O)N[C@H](C(=O)N[C@@H](CCN)C(=O)N[C@H]1CCNC(=O)[C@H]([C@@H](C)O)NC(=O)[C@H](CCN)NC(=O)[C@H](CCN)NC(=O)[C@H](CC(C)C)NC(=O)[C@@H](CC(C)C)NC(=O)[C@H](CCN)NC1=O)[C@@H](C)O [colistin] | active: 0.039 |
| CC1(C)S[C@@H]2[C@H](NC(=O)COc3ccccc3)C(=O)N2[C@H]1C(=O)O [Penicillin V Potassium] + CCC(C)CCCC(=O)N[C@@H](CCN)C(=O)N[C@H](C(=O)N[C@@H](CCN)C(=O)N[C@H]1CCNC(=O)[C@H]([C@@H](C)O)NC(=O)[C@H](CCN)NC(=O)[C@H](CCN)NC(=O)[C@H](CC(C)C)NC(=O)[C@@H](CC(C)C)NC(=O)[C@H](CCN)NC1=O)[C@@H](C)O [colistin] | inactive: 1.1 |
| CN(C)c1cc(NC(=O)CNC(C)(C)C)c(O)c2c1C[C@H]1C[C@H]3[C@H](N(C)C)C(=O)C(C(N)=O)=C(O)[C@@]3(O)C(=O)C1=C2O [Tigecycline] + CCC(C)CCCC(=O)N[C@@H](CCN)C(=O)N[C@H](C(=O)N[C@@H](CCN)C(=O)N[C@H]1CCNC(=O)[C@H]([C@@H](C)O)NC(=O)[C@H](CCN)NC(=O)[C@H](CCN)NC(=O)[C@H](CC(C)C)NC(=O)[C@@H](CC(C)C)NC(=O)[C@H](CCN)NC1=O)[C@@H](C)O [colistin] | inactive: 1.11 |
| OC(Cn1cncn1)(Cn1cncn1)c1ccc(F)cc1F [Fluconazole] + CCC(C)CCCC(=O)N[C@@H](CCN)C(=O)N[C@H](C(=O)N[C@@H](CCN)C(=O)N[C@H]1CCNC(=O)[C@H]([C@@H](C)O)NC(=O)[C@H](CCN)NC(=O)[C@H](CCN)NC(=O)[C@H](CC(C)C)NC(=O)[C@@H](CC(C)C)NC(=O)[C@H](CCN)NC1=O)[C@@H](C)O [colistin] | inactive: 0.828 |
| Cc1ccnc(NS(=O)(=O)c2ccc(N)cc2)n1 [Sulfamerazine] + CCC(C)CCCC(=O)N[C@@H](CCN)C(=O)N[C@H](C(=O)N[C@@H](CCN)C(=O)N[C@H]1CCNC(=O)[C@H]([C@@H](C)O)NC(=O)[C@H](CCN)NC(=O)[C@H](CCN)NC(=O)[C@H](CC(C)C)NC(=O)[C@@H](CC(C)C)NC(=O)[C@H](CCN)NC1=O)[C@@H](C)O [colistin] | inactive: 1.15 |
| c1ccc(CN(CC2=NCCN2)c2ccccc2)cc1 [Antazoline hydrochloride] + CCC(C)CCCC(=O)N[C@@H](CCN)C(=O)N[C@H](C(=O)N[C@@H](CCN)C(=O)N[C@H]1CCNC(=O)[C@H]([C@@H](C)O)NC(=O)[C@H](CCN)NC(=O)[C@H](CCN)NC(=O)[C@H](CC(C)C)NC(=O)[C@@H](CC(C)C)NC(=O)[C@H](CCN)NC1=O)[C@@H](C)O [colistin] | inactive: 1.14 |
| CCN(CC)C(=O)N1CCN(C)CC1 [Diethylcarbamazine citrate] + CCC(C)CCCC(=O)N[C@@H](CCN)C(=O)N[C@H](C(=O)N[C@@H](CCN)C(=O)N[C@H]1CCNC(=O)[C@H]([C@@H](C)O)NC(=O)[C@H](CCN)NC(=O)[C@H](CCN)NC(=O)[C@H](CC(C)C)NC(=O)[C@@H](CC(C)C)NC(=O)[C@H](CCN)NC1=O)[C@@H](C)O [colistin] | inactive: 0.734 |
| CC[C@H]1[C@@H](O)[C@@H]2[C@H](CC[C@]3(C)[C@@H]([C@H](C)CCC(=O)O)CC[C@@H]23)[C@@]2(C)CC[C@@H](O)C[C@@H]12 [Obeticholic Acid] + CCC(C)CCCC(=O)N[C@@H](CCN)C(=O)N[C@H](C(=O)N[C@@H](CCN)C(=O)N[C@H]1CCNC(=O)[C@H]([C@@H](C)O)NC(=O)[C@H](CCN)NC(=O)[C@H](CCN)NC(=O)[C@H](CC(C)C)NC(=O)[C@@H](CC(C)C)NC(=O)[C@H](CCN)NC1=O)[C@@H](C)O [colistin] | inactive: 1.09 |
| CNS(=O)(=O)Cc1ccc2[nH]cc(CCN(C)C)c2c1 [Sumatriptan succinate] + CCC(C)CCCC(=O)N[C@@H](CCN)C(=O)N[C@H](C(=O)N[C@@H](CCN)C(=O)N[C@H]1CCNC(=O)[C@H]([C@@H](C)O)NC(=O)[C@H](CCN)NC(=O)[C@H](CCN)NC(=O)[C@H](CC(C)C)NC(=O)[C@@H](CC(C)C)NC(=O)[C@H](CCN)NC1=O)[C@@H](C)O [colistin] | inactive: 1.08 |
| CC(=O)Oc1cc2c(s1)CCN(C(C(=O)C1CC1)c1ccccc1F)C2 (centres undefined) [Prasugrel] + CCC(C)CCCC(=O)N[C@@H](CCN)C(=O)N[C@H](C(=O)N[C@@H](CCN)C(=O)N[C@H]1CCNC(=O)[C@H]([C@@H](C)O)NC(=O)[C@H](CCN)NC(=O)[C@H](CCN)NC(=O)[C@H](CC(C)C)NC(=O)[C@@H](CC(C)C)NC(=O)[C@H](CCN)NC1=O)[C@@H](C)O [colistin] | inactive: 0.988 |
| C[C@]12CCC3=C4CCC(=O)C=C4CC[C@H]3[C@@H]1CC[C@@]2(O)CC#N [Dienogest] + CCC(C)CCCC(=O)N[C@@H](CCN)C(=O)N[C@H](C(=O)N[C@@H](CCN)C(=O)N[C@H]1CCNC(=O)[C@H]([C@@H](C)O)NC(=O)[C@H](CCN)NC(=O)[C@H](CCN)NC(=O)[C@H](CC(C)C)NC(=O)[C@@H](CC(C)C)NC(=O)[C@H](CCN)NC1=O)[C@@H](C)O [colistin] | inactive: 0.891 |
| Cc1ccccc1C(OCCN(C)C)c1ccccc1 (centres undefined) [Orphenadrine hydrochloride] + CCC(C)CCCC(=O)N[C@@H](CCN)C(=O)N[C@H](C(=O)N[C@@H](CCN)C(=O)N[C@H]1CCNC(=O)[C@H]([C@@H](C)O)NC(=O)[C@H](CCN)NC(=O)[C@H](CCN)NC(=O)[C@H](CC(C)C)NC(=O)[C@@H](CC(C)C)NC(=O)[C@H](CCN)NC1=O)[C@@H](C)O [colistin] | inactive: 0.953 |
| CN(C)c1ccc(C(=C2C=CC(=[N+](C)C)C=C2)c2ccc(N(C)C)cc2)cc1 [Crystal Violet] + CCC(C)CCCC(=O)N[C@@H](CCN)C(=O)N[C@H](C(=O)N[C@@H](CCN)C(=O)N[C@H]1CCNC(=O)[C@H]([C@@H](C)O)NC(=O)[C@H](CCN)NC(=O)[C@H](CCN)NC(=O)[C@H](CC(C)C)NC(=O)[C@@H](CC(C)C)NC(=O)[C@H](CCN)NC1=O)[C@@H](C)O [colistin] | active: 0.148 |

Retrieved one by one from the entries so far, two records:

| Structure (SMILES) | OD600 |
| --- | --- |
| O=C(c1ccccc1)c1ccc2n1CCC2C(=O)O (centres undefined) [Ketorolac tromethamine salt] + CCC(C)CCCC(=O)N[C@@H](CCN)C(=O)N[C@H](C(=O)N[C@@H](CCN)C(=O)N[C@H]1CCNC(=O)[C@H]([C@@H](C)O)NC(=O)[C@H](CCN)NC(=O)[C@H](CCN)NC(=O)[C@H](CC(C)C)NC(=O)[C@@H](CC(C)C)NC(=O)[C@H](CCN)NC1=O)[C@@H](C)O [colistin] | inactive: 0.952 |
| N[C@H]1CONC1=O [L-Cycloserine] + CCC(C)CCCC(=O)N[C@@H](CCN)C(=O)N[C@H](C(=O)N[C@@H](CCN)C(=O)N[C@H]1CCNC(=O)[C@H]([C@@H](C)O)NC(=O)[C@H](CCN)NC(=O)[C@H](CCN)NC(=O)[C@H](CC(C)C)NC(=O)[C@@H](CC(C)C)NC(=O)[C@H](CCN)NC1=O)[C@@H](C)O [colistin] | inactive: 1.11 |
